The values below come from patent US7053249B2, “Metal chelates and methods of using them for time-resolved fluorescence” (IDEXX Laboratories, Inc., priority 2002, dated 2006).

This series in a line: excitation and emission spectra of europium(III) chelates in 0.1 M borate buffer pH 9.0 with TOPO. It counts as physicochemical. As to conditions: Eu(III) chloride chelate, 0.1 M borate buffer pH 9.0, in presence of TOPO.

Take `O=C(CC(=O)C(F)(F)F)c1ccc2ccccc2c1` [compound 1, 2-naphthoyltrifluoroacetone, reference compound]: the peak excitation wavelength was determined as 330 nm.
As for “1,3-dinaphthyl-1,3-propanedione [compound 3]”, the figure is 400 nm; as for “1-phenyl-3-naphthyl-1,3-propanedione [compound 2]”, 390 nm.
